Assay results taken from patent US8592581B2, “Trisubstituted purine derivatives” (Cyclacel Limited, priority 2007, dated 2013).
pIC50: −log10 of the molar value.

Tested on: H460 non-small cell lung cancer (NSCLC) cell line
Assay: Alamar blue cytotoxicity assay in H460 NSCLC tumour cell line
Assay type: cell-based
Details: Homo sapiens, NCI-H460; H460 cells, 72 hours, average of three independent experiments
Method: In order to determine the cellular potency of the compounds, the cytotoxicity of each compound was determined against the H460 non-small cell lung cancer (NSCLC) cell line. Standard cytotoxicity methods were performed as follows: H460 cells were seeded in 96-well plates appropriately for their doubling time (3000 cells per well) in RPMI media containing 10% FCS and incubated overnight at 37° C., 5% CO2. The media was removed and 100 μl fresh media containing increasing concentrations of appropriate compound was added and the cells incubated for 72 hours at 37° C., 5% CO2. A 10% stock of alamar blue (Roche, Lewes, United Kingdom) was prepared in medium and 100 μl added to the cells which were incubated for 2 hours. Absorbance was measured on the Wallac Victor 2 1420 multi-label counter at 544-595 nm.

CC[C@H](CO)Nc1nc(NCc2ccccc2)c2ncn(C(C)C)c2n1 [Seliciclib, seliciclib, reference compound]
pIC50: 4.92
